Test results published in the RNAGym collection of RNA variant scans (doi:10.1126/science.aae0568).
Variants at the floor of the assay are shown more often than the library holds them.

B1: tRNA (parent)
chain: GUUCCGUUGGCGUAAUGGUAACGCGUCUCCCUCCUAAGGAGAAGACUGCGGGUUCGAGUCCCGUACGGAACG

Variants of: B1
Assay: yeast fitness relative to wild type (ratio to wild type); higher = fitter; tRNA-Arg(CCU), competitive growth, 37 C, YPD
In short: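 For this measurement, the tRNA-Arg(CCU) gene was varied by chemical synthesis at a 3% per-site mutation rate across 69 sites, and each variant was placed at the native genomic locus in Saccharomyces cerevisiae. The pooled strains went through a 24-hour competition in YPD at 37°C in six parallel replicates, with amplicons from start and end populations read by 100-nucleotide paired-end sequencing. Darwinian fitness relative to wild type followed from the change in each genotype's frequency. Genotypes needed ≥ 100 starting reads, and estimates < 0.5 were set to 0.5.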
In the case of C11A U35C G50C, the yeast fitness is reported as ≤ 0.5. With C11A U47G C62U A65C the yeast fitness was ≤ 0.5. In the case of C11G A14C U19C C30G A45G U53C, the yeast fitness is reported as ≤ 0.5. For C11G A14G A21C C30U C33A A43G, the yeast fitness was ≤ 0.5. For C11G A14G G17A, the yeast fitness was ≤ 0.5. For C11G A14G G39C C55U A70G, the yeast fitness was ≤ 0.5. For C11G A14U C22A C29G C34A, the yeast fitness was ≤ 0.5. For C11G A14U G17A C27G C62A, the yeast fitness was ≤ 0.5. For C11G A15C A37U, the yeast fitness was ≤ 0.5. With C11G A15G C34A the yeast fitness was ≤ 0.5. In the case of C11G A15G U26A U32A G38A A40U, the yeast fitness is reported as ≤ 0.5. For C11G A20U U26G U47G C61U, the yeast fitness was ≤ 0.5. For C11G A21C C34U A40G, the yeast fitness was ≤ 0.5. For C11G A21U U32A C55G, the yeast fitness was ≤ 0.5. In the case of C11G A42G C62G, the yeast fitness is reported as ≤ 0.5. In the case of C11G A42U U59A, the yeast fitness is reported as ≤ 0.5. In the case of C11G A43U A57C C61U, the yeast fitness is reported as ≤ 0.5. For C11G A43U G67C, the yeast fitness was 0.505. For C11G A45G C62A, the yeast fitness was ≤ 0.5. In the case of C11G C22A A69U, the yeast fitness is reported as ≤ 0.5. C11G C22G C27G C62U gave a yeast fitness of 0.578. With C11G C24G C30G C34U A43C G56C the yeast fitness was ≤ 0.5. For C11G C24G C60U, the yeast fitness was ≤ 0.5. In the case of C11G C27A C34G, the yeast fitness is reported as ≤ 0.5. In the case of C11G C27A C34U A42U C66G, the yeast fitness is reported as ≤ 0.5. In the case of C11G C27U A36U A37U G41C A43C, the yeast fitness is reported as ≤ 0.5. With C11G C27U A36U A37U G41C A43U C49G C62G the yeast fitness was ≤ 0.5. For C11G C27U C33G A69U, the yeast fitness was ≤ 0.5. For C11G C27U C66U, the yeast fitness was ≤ 0.5. In the case of C11G C27U G67C, the yeast fitness is reported as ≤ 0.5. With C11G C27U U53A U59A the yeast fitness was ≤ 0.5. In the case of C11G C29G C49U G63A, the yeast fitness is reported as ≤ 0.5. In the case of C11G C29G U35C U47A, the yeast fitness is reported as ≤ 0.5. With C11G C29U C34U G52A C62A C66U the yeast fitness was ≤ 0.5. With C11G C29U C61A the yeast fitness was ≤ 0.5. With C11G C29U G52A the yeast fitness was ≤ 0.5. In the case of C11G C29U U35C C66A, the yeast fitness is reported as ≤ 0.5. With C11G C30A A37G C46U A57C the yeast fitness was ≤ 0.5. With C11G C30G C31G U32A A57G C62A the yeast fitness was ≤ 0.5. With C11G C30G U53G C60U the yeast fitness was ≤ 0.5. For C11G C31A C55U, the yeast fitness was ≤ 0.5. For C11G C31A G51A C62A, the yeast fitness was ≤ 0.5. With C11G C31G the yeast fitness was 0.555. In the case of C11G C33U A42C A43C C49U A69U, the yeast fitness is reported as ≤ 0.5. In the case of C11G C33U G56C G63A, the yeast fitness is reported as ≤ 0.5. For C11G C34A C46U, the yeast fitness was ≤ 0.5. In the case of C11G C34U C66G, the yeast fitness is reported as ≤ 0.5. With C11G C49A G63C G68U the yeast fitness was ≤ 0.5. In the case of C11G C49U C60U, the yeast fitness is reported as ≤ 0.5. In the case of C11G C49U C62U, the yeast fitness is reported as 0.535. For C11G G12A C24A C30G G44C C61G, the yeast fitness was ≤ 0.5. In the case of C11G G18A G44U A57U, the yeast fitness is reported as ≤ 0.5. In the case of C11G G18C U26C C31G C46U C55U, the yeast fitness is reported as ≤ 0.5. Work on C11G G23C A36G A37G yielded a yeast fitness of 0.774. In the case of C11G G25A C29U C34U, the yeast fitness is reported as ≤ 0.5. With C11G G25C U26C C62U the yeast fitness was ≤ 0.5. C11G G44C C66A gave a yeast fitness of 0.614. For C11G G48A C49G, the yeast fitness was 0.587. In the case of C11G G50U A65U, the yeast fitness is reported as ≤ 0.5. For C11G G51A U53C, the yeast fitness was ≤ 0.5. In the case of C11G G51C A65G A69U, the yeast fitness is reported as ≤ 0.5. With C11G G52C U54C A57U the yeast fitness was ≤ 0.5. Variant C11G G58A has a yeast fitness of 0.722. Variant C11G U13G A21G has a yeast fitness of 0.785. With C11G U13G C66U the yeast fitness was ≤ 0.5. With C11G U16A G23C C61G the yeast fitness was ≤ 0.5. With C11G U16G G38C U54A G68C the yeast fitness was ≤ 0.5. With C11G U16G U35A G41C U64C the yeast fitness was ≤ 0.5. For C11G U19C A45U U64G A70C, the yeast fitness was ≤ 0.5. With C11G U26A C27A C29G C46A G50A G58A C62U the yeast fitness was ≤ 0.5. In the case of C11G U26A U54C, the yeast fitness is reported as ≤ 0.5. For C11G U28A A65U G67A, the yeast fitness was ≤ 0.5. For C11G U28C A43C, the yeast fitness was ≤ 0.5. In the case of C11U, the yeast fitness is reported as 1.01. In the case of C11U A14G A45U G63C, the yeast fitness is reported as ≤ 0.5. Variant C11U A14G A65U G68A has a yeast fitness of 0.617. With C11U A14G U28C C61A the yeast fitness was ≤ 0.5. In the case of C11U A15C C27A G39C G48C C66U, the yeast fitness is reported as ≤ 0.5. In the case of C11U A15C C27A G39C G67U, the yeast fitness is reported as ≤ 0.5. For C11U A15C G56A C66U, the yeast fitness was ≤ 0.5. In the case of C11U A15G C24G C27G C31U C55U, the yeast fitness is reported as ≤ 0.5. In the case of C11U A15G U32A C61G C62U A69U, the yeast fitness is reported as ≤ 0.5. For C11U A15U C33A, the yeast fitness was ≤ 0.5. In the case of C11U A15U C34A G39C A40C G56C C61G C62G G68C, the yeast fitness is reported as ≤ 0.5. With C11U A20G C24G C49U C62A the yeast fitness was ≤ 0.5. For C11U A20U G38A C49U G51A U54A, the yeast fitness was ≤ 0.5. With C11U A20U G38A C61U A69U the yeast fitness was ≤ 0.5. In the case of C11U A20U G39A A70U, the yeast fitness is reported as ≤ 0.5. For C11U A20U U54C C55G, the yeast fitness was ≤ 0.5. In the case of C11U A21C A43G, the yeast fitness is reported as ≤ 0.5. For C11U A21G C29G, the yeast fitness was ≤ 0.5. In the case of C11U A21G C34A A42U, the yeast fitness is reported as ≤ 0.5. In the case of C11U A36U A70U, the yeast fitness is reported as 0.694. In the case of C11U A37G G39C G51A, the yeast fitness is reported as ≤ 0.5. For C11U A37U A45C C55G C61A, the yeast fitness was ≤ 0.5. With C11U A37U C55U C66U the yeast fitness was ≤ 0.5. In the case of C11U A37U U53G, the yeast fitness is reported as ≤ 0.5. In the case of C11U A40U G67A, the yeast fitness is reported as ≤ 0.5. In the case of C11U A42U A43G G52C C60G, the yeast fitness is reported as ≤ 0.5. With C11U A42U A57U G58C the yeast fitness was ≤ 0.5. In the case of C11U A42U G44C U54A, the yeast fitness is reported as ≤ 0.5. Work on C11U A43G A57U yielded a yeast fitness of 0.568. With C11U A43U C49A C60U the yeast fitness was ≤ 0.5. With C11U C22G C29G the yeast fitness was ≤ 0.5. For C11U C22G C30U U54C, the yeast fitness was ≤ 0.5. With C11U C22G C34G A40C A69U the yeast fitness was ≤ 0.5. For C11U C24G C30A A40C, the yeast fitness was ≤ 0.5. C11U C24G C33A A40C gave a yeast fitness of 0.955. C11U C24G C33A A40C U53C showed a yeast fitness of 0.626. With C11U C24G C33G the yeast fitness was 0.541. Variant C11U C24U has a yeast fitness of 0.852. With C11U C27G A43U G63A the yeast fitness was ≤ 0.5. With C11U C27G C61A C66U the yeast fitness was ≤ 0.5. For C11U C29A A36U G50C C62U, the yeast fitness was ≤ 0.5. With C11U C29A G51A the yeast fitness was ≤ 0.5. For C11U C29U C55A U64C, the yeast fitness was ≤ 0.5. With C11U C29U G48A G63A the yeast fitness was ≤ 0.5. With C11U C29U G58U C61U the yeast fitness was ≤ 0.5. Work on C11U C29U G67A yielded a yeast fitness of 0.57. For C11U C30A C31U A45C C55G, the yeast fitness was ≤ 0.5. With C11U C30A U47A G63U the yeast fitness was ≤ 0.5. For C11U C30G A40C C49U, the yeast fitness was ≤ 0.5. For C11U C30G C61U G68A, the yeast fitness was ≤ 0.5. In the case of C11U C30U A57U, the yeast fitness is reported as ≤ 0.5. With C11U C30U C55G G63A the yeast fitness was ≤ 0.5. For C11U C30U U54A, the yeast fitness was ≤ 0.5. With C11U C31A A45C the yeast fitness was ≤ 0.5. For C11U C31G A36G U54A A57U C62U A69G, the yeast fitness was ≤ 0.5. With C11U C31G C46A G67U the yeast fitness was ≤ 0.5. For C11U C31U G38C, the yeast fitness was ≤ 0.5. With C11U C31U G68C the yeast fitness was ≤ 0.5. With C11U C31U U64A A70G the yeast fitness was ≤ 0.5. With C11U C33G A36G C49A A65G C66U the yeast fitness was ≤ 0.5. With C11U C33G G38C the yeast fitness was ≤ 0.5. In the case of C11U C33G G48C, the yeast fitness is reported as ≤ 0.5. In the case of C11U C34U G48A A69C, the yeast fitness is reported as ≤ 0.5. For C11U C34U G48A C66U, the yeast fitness was ≤ 0.5. In the case of C11U C46G C61U, the yeast fitness is reported as 0.596. For C11U C46U C55A, the yeast fitness was ≤ 0.5. In the case of C11U C66G A69U, the yeast fitness is reported as 0.555. For C11U C66U A69G, the yeast fitness was 0.639. In the case of C11U G12A A15C C27U A69U, the yeast fitness is reported as ≤ 0.5. With C11U G12A C55A C62G A69C the yeast fitness was ≤ 0.5. With C11U G12A G44C C46U A70C the yeast fitness was ≤ 0.5. For C11U G17C C30A C33G C60A, the yeast fitness was ≤ 0.5. In the case of C11U G18A A20U C22G C31G, the yeast fitness is reported as ≤ 0.5. For C11U G18C C29A G67C, the yeast fitness was ≤ 0.5. For C11U G18C C34U A42C, the yeast fitness was ≤ 0.5. With C11U G18C G52C the yeast fitness was ≤ 0.5. Variant C11U G23A U35C has a yeast fitness of 0.573. With C11U G23C C29U C34G A57G U59G the yeast fitness was ≤ 0.5. In the case of C11U G23C G41A C62A, the yeast fitness is reported as ≤ 0.5. For C11U G25A C29U G50A A70C, the yeast fitness was ≤ 0.5. In the case of C11U G38U A40U G50C G58C U59A, the yeast fitness is reported as ≤ 0.5. In the case of C11U G39A G52C C55G, the yeast fitness is reported as ≤ 0.5. With C11U G39C C62U G63C the yeast fitness was ≤ 0.5. With C11U G52U C55A the yeast fitness was ≤ 0.5. C11U U16A U64A gave a yeast fitness of 0.514. In the case of C11U U19A C27U U59A A65C G67U, the yeast fitness is reported as ≤ 0.5. For C11U U19A U59A C60U, the yeast fitness was ≤ 0.5. For C11U U19C C31A G50U C62G, the yeast fitness was ≤ 0.5. For C11U U19C G23A G25A C55U, the yeast fitness was 0.537. For C11U U26C U47A G50A, the yeast fitness was ≤ 0.5. For C11U U32A C33A C34U, the yeast fitness was ≤ 0.5. With C11U U35A A43C the yeast fitness was ≤ 0.5. For G12A A14C A43C A45G, the yeast fitness was ≤ 0.5. In the case of G12A A14U C33A, the yeast fitness is reported as ≤ 0.5.
